These results are taken from paper PMC10024175, “Structuring supramolecular hyaluronan hydrogels via peptide self-assembly for modulating the cell microenvironment” (Materials Today Bio, 2023).

These are yes or no findings as the source states them, for the method shown.

Test [1] concerns the target (KI)2K peptide. Briefly: condition: only at pH 7 with NaCl up to 400 mM, 10 mM peptide; FTIR spectroscopy; 10 mM peptide in D2O, pH 7, NaCl 0, 50, 100, 200, 300 and 400 mM; beta-sheet formation read as self-assembly; both purified.
Test [2] concerns the target (KI)2K peptide. Briefly: condition: only at neutral pH, 1 mM peptide in water; zeta potential; 1 mM peptide in ultrapure water, neutral pH; self-association of the peptide; both purified.
A further test concerns the target (KI)3K peptide. Described as above.
Another test concerns the target (KI)4K peptide. The test is described as above.

B1: (KI)2K peptide (peptide)
peptide: KIKIK
modifications: acetylated N-terminus
Regarding B1, the binding entry in the test with (KI)2K peptide [1] and with (KI)2K peptide [2] was “no binding” in each case.

B2: (KI)3K peptide (peptide)
peptide: KIKIKIK
modifications: acetylated N-terminus
In the case of B2, the binding entry with (KI)3K peptide was “no binding”.

B3: (KI)4K peptide (peptide)
peptide: KIKIKIKIK
modifications: acetylated N-terminus
Turning to B3, the binding entry with (KI)4K peptide is “no binding”.
